Article PMC6749586, “Design, Synthesis, and Anticancer Effect Studies of Iridium(III) Polypyridyl Complexes against SGC-7901 Cells” (Molecules, 2019)

Each molecule was assayed on SGC-7901 cells (assay: Intracellular ROS measurement with DCFH-DA). Details: 1 (4.0 M), 2 (15.0 M), 3 (15.0 M) as printed; no DCFH-DA.
Format: cell-based, human
Experimental: 2,7-Dichloro-dihydrofluorescein diacetate (DCFH-DA) was used as a fluorescence probe to investigate the changes in intracellular ROS levels. SGC-7901 cells were placed in a 12-well plate at a density of 1.5 × 10^5 per well. After 24 h, the medium in the wells was replaced with a medium containing the corresponding concentration of 1–3, and the cells were incubated for 24 h. Finally, the cell pellets were suspended in PBS and imaged under the ImageXpress Micro XLS system (MD company, US). The DCF fluorescence intensity was calculated by flow cytometry.

How did the “Fluorescence intensity of cell + complex without dyes” value turn out when `F[P-](F)(F)(F)(F)F.O=[N+]([O-])c1cc2ccc[n+]3c2c2c1ccc[n+]2[Ir-5]312([c]3ccccc3-c3cccc[n+]31)[c]1ccccc1-c1cccc[n+]12` [Complex 1, [Ir(Hppy)2(NP)]PF6] was run?
Its value is 780.

For `F[P-](F)(F)(F)(F)F.Nc1c([N+](=O)[O-])c2cccnc2c2ncccc12.[Ir+3].[c-]1ccccc1-c1ccccn1.[c-]1ccccc1-c1ccccn1` [Complex 2, [Ir(Hppy)2(NAP)]PF6], which “Fluorescence intensity of cell + complex without dyes” value is on record?
The value was 507.

For `F[P-](F)(F)(F)(F)F.Nc1c(N)c2cccnc2c2ncccc12.[Ir+3].[c-]1ccccc1-c1ccccn1.[c-]1ccccc1-c1ccccn1` [Complex 3, [Ir(Hppy)2(DAP)]PF6], which “Fluorescence intensity of cell + complex without dyes” value is on record?
The value was 1120.
